Laboratory results reported in PubChem BioAssay AID1347076 (National Center for Advancing Translational Sciences (NCATS), 2019).
About 13,000 (3.2%) of roughly 400,000 compounds were called active. Inconclusive results, whose numbers are uncertain, are shown with a selection of clear calls. Calls come from the whole dose curve; as a rule, active = well fitted cell-killing curve with a large enough effect; inconclusive = small, poorly fitted or top-dose-only effect, or effect the other way; inactive = flat fitted curve, though single readings scatter. Where the call is inconclusive, the potency comes from a doubtful curve fit.

Assay: qHTS assay for MDR1-selective chemotherapeutics: Primary screen using the drug-selected MDR subline cells KB-V1; note: nearly all actives have a fitted effect of over 60% in size
Settings: KB-V1 MDR cells viability, CellTiter-Glo, 72 h; activity change, negative = cytotoxicity: at 46.1 µM (top of the series)
Summary of the method: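 KB-V1 cells (P-gp-expressing MDR subline of KB-3-1) in phenol-red-free DMEM with 10% FBS were exposed to library compounds over a concentration series for 72 h at 37 degrees C. Viability read by CellTiter-Glo luminescence; concentration-effect curves fitted after normalization.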
% is set by controls: 0 for no effect and ±100 for the full control effect; potency is the fitted concentration of half-maximal effect.

| SMILES | Potency | activity change, negative = cytotoxicity |
| --- | --- | --- |
| CN(Cc1ccccc1)C(=O)COC(=O)Cn1cnc2ccccc21 | inconclusive: 32.6 µM [rising, single point] |  |
| CC(=O)N1CCN(c2ccc(NC(=S)NC(=O)c3ccccc3)cc2)CC1 | active: 3.66 µM |  |
| CC(C)Nc1nc(NC(C)C)nc(OCCOC(=O)c2ccccc2)n1 |  | inconclusive: -5.81% |
| COc1ccc(NC(=O)c2cc3c(=O)n(Cc4cccnc4)ccc3nc2C)cc1OC | inconclusive: 25.9 µM [rising, partial curve, poor fit] |  |
| COc1ccc2[nH]c3c(NCCC4=CCCCC4)ncnc3c2c1 | active: 9.2 µM |  |
| CCOC(=O)C1=CCN(S(=O)(=O)c2cccc(Cl)c2)C1c1cccc(F)c1 (stereo unspecified) |  | inconclusive: -20.3% |
| COc1ccc(-n2c(=O)c3ccccc3n(CC(=O)NCCc3ccc(OC)c(OC)c3)c2=O)cc1 | inconclusive: 29.1 µM [rising, single point] |  |
| C/C(=N\Nc1nc2ccccc2[nH]1)c1cc2ccccc2o1 | inconclusive: 29.1 µM [cytotoxic, single point] |  |
| CC(C)(C)c1ccc(/C=C/C(=O)Nc2cccnc2)cc1 |  | inactive: -12.4% |
| CC(C)(C)NC(=O)COc1ccc(-c2ccccc2)cc1 | inconclusive: 20.6 µM [cytotoxic, single point] |  |
| COc1ccccc1CNS(=O)(=O)c1cc(CN2C(=O)c3cccnc3C2=O)ccc1OC | inconclusive: 23.1 µM [rising, single point] |  |
| CN(CC(=O)N1CCN(C2CCCCC2)CC1)S(=O)(=O)c1cccc2nsnc12 | inconclusive: 10.3 µM [cytotoxic, partial curve] |  |
| Cc1ccc2[nH]c(C)c(/C=N/Nc3nc4ccccc4s3)c2c1 | inconclusive: 32.6 µM [cytotoxic, partial curve, poor fit] |  |
| CC(C)C(c1nnnn1Cc1ccc(F)cc1)N1CCN(C2CCCC2)CC1 (stereo unspecified) | inconclusive: 20.6 µM [cytotoxic, single point] |  |
| CCCOc1ccc(C(=O)ON=C2CCN(C)CC2)cc1 |  | inactive: -0.72% |
| COc1ccc(NC(=O)CSc2nnc(C)n2C2CC2)cc1S(=O)(=O)N1CCOCC1 | inconclusive: 29.1 µM [rising, single point] |  |
| COC(=O)[C@@H]1C(c2ccccc2)(c2ccccc2)[C@@]1(C)C(=O)OC | inconclusive: 13 µM [cytotoxic, partial curve, poor fit] |  |
| O=C(NCc1ccccc1F)C1CCCN1S(=O)(=O)c1ccc(F)cc1 (stereo unspecified) | inconclusive: 29.1 µM [cytotoxic, single point] |  |
| CCC1CN(C(=O)Nc2ccc(C)c(F)c2)c2ccccc2S1 (stereo unspecified) |  | inactive: -6.64% |
| Fc1ccc(C(c2nnnn2C2CCCCC2)N2CCCC2)cc1 (stereo unspecified) | inconclusive: 29.1 µM [rising, single point] |  |
| OC[C@@H]1CN(Cc2cccnc2)C[C@H](n2cnc3c(N4CCN(c5ccccc5)CC4)ncnc32)O1 |  | inactive: 5.59% |
| O=C(COc1ccccc1-c1ccccc1)N/N=C/c1ccccn1 | inconclusive: 32.6 µM [cytotoxic, single point] |  |
| COc1cccc(C(=O)N/N=C/c2ccc(Oc3ccc([N+](=O)[O-])cn3)c(OC)c2)c1 |  | inactive: -5.53% |
| CC1(C)Cc2c(sc(NC(=O)C(=O)N3CCOCC3)c2C#N)CO1 |  | inconclusive: 40.2% |

5 structures out of the list, arranged by SMILES length, high to low.

| SMILES | Potency | activity change, negative = cytotoxicity |
| --- | --- | --- |
| OC[C@@H]1CN(Cc2cccnc2)C[C@H](n2cnc3c(N4CCN(c5ccccc5)CC4)ncnc32)O1 |  | inactive: 5.59% |
| COc1ccc(NC(=O)CSc2nnc(C)n2C2CC2)cc1S(=O)(=O)N1CCOCC1 | inconclusive: 29.1 µM [rising, single point] |  |
| CN(CC(=O)N1CCN(C2CCCCC2)CC1)S(=O)(=O)c1cccc2nsnc12 | inconclusive: 10.3 µM [cytotoxic, partial curve] |  |
| C/C(=N\Nc1nc2ccccc2[nH]1)c1cc2ccccc2o1 | inconclusive: 29.1 µM [cytotoxic, single point] |  |
| CCCOc1ccc(C(=O)ON=C2CCN(C)CC2)cc1 |  | inactive: -0.72% |

Continuation.

| SMILES | Potency | activity change, negative = cytotoxicity |
| --- | --- | --- |
| CN1CC[C@]23c4ccccc4N[C@H]1[C@]21CCN(C)[C@H]3Nc2ccccc21 |  | inactive: -24.1% |
| COc1ccc(C(=O)OCCOc2ccccc2C(C)=O)c(O)c1 | inconclusive: 13 µM [cytotoxic, partial curve] |  |
| COc1ccc(CC(=O)Nc2nncs2)cc1OC |  | inactive: -15.7% |
| COc1ccc(OC)c(C(=O)/C=C/c2ccccc2C(F)(F)F)c1 | inconclusive: 29.1 µM [cytotoxic, single point] |  |
| O=C(NNc1ccccc1)C(=O)NNS(=O)(=O)c1ccc(CCCl)cc1 |  | inactive: -7.15% |
| Cc1ccc(NC(=O)CN2CCSc3ccc(S(=O)(=O)N4CCCC4)cc32)cc1C | active: 10.3 µM |  |
| CCOC(=O)c1ccc2c(c1)nc(-c1ccccn1)n2CC | inconclusive: 23.1 µM [cytotoxic, single point] |  |
| Cc1ccc(S(=O)(=O)Nc2cc(Cl)c(O)c3ncccc23)cc1 | inconclusive: 2.31 µM [cytotoxic, full curve] |  |
| CC(C)N(Cc1ccccc1)C(=O)C1CCN(c2ncnc3c2nc2n3CCCCC2)CC1 |  | inactive: 13.6% |
| CCOC(=O)c1c(C)n(-c2ccc(OC)cc2)c2ccc(O)c(CN(C)C)c12 | inconclusive: 4.61 µM [cytotoxic, full curve] |  |
| O=C1CN(C(=O)c2ccc(S(=O)(=O)N3CCCC3)cc2)C(c2ccccc2)c2cc(Br)ccc2N1 (stereo unspecified) |  | inactive: -3.63% |
| Cc1c(CCOC(=O)C23CC4(C)CC(C)(CC(C)(C4)C2)C3)sc[n+]1CC(=O)c1ccccc1 | inconclusive: 23.1 µM [cytotoxic, single point] |  |
| COc1cccc(/C=N/NC(=O)CC2C(=O)NN=C2C)c1OC (stereo unspecified) |  | inactive: 16.1% |
| COc1cc(OC)c(NS(=O)(=O)c2cc(-c3cnc(C4CC4)o3)ccc2C)cc1Cl |  | inactive: 4.17% |
| CC(=O)Nc1c(NC(C)(C)C)c2ccccc2oc1=O | inconclusive: 20.6 µM [rising, single point] |  |
| NC(=O)CCC(NC(=O)c1ccc(Cl)cc1)C(=O)O (stereo unspecified) | inconclusive: 4.61 µM [rising, full curve] |  |
| CCc1nc2ccc(C(=O)Nc3cccc(NS(C)(=O)=O)c3)cn2c1N(CC)Cc1cccc(Br)c1 | inconclusive: 20.6 µM [cytotoxic, single point] |  |
| CCCC1(CCC)NC(=O)N(CC(=O)N2CCc3ccccc32)C1=O | active: 16.4 µM |  |
| Cc1cccc(N2CC(C(=O)OCC(=O)c3c(N)n(CC(C)C)c(=O)n(C)c3=O)CC2=O)c1C (stereo unspecified) |  | inactive: 6.15% |
| O=C(CCc1nc2ccccc2c(=O)[nH]1)Nc1cc(C(F)(F)F)ccc1N1CCCC1 | inconclusive: 23.1 µM [cytotoxic, single point] |  |
| CCOc1ccc(-c2cc(-c3nc(-c4ccc(OC)c(OC)c4)no3)[nH]n2)cc1 |  | inactive: 3.91% |
| Cc1cc(C)nc(SCC(=O)Oc2ccc3oc(=O)cc(C)c3c2)n1 | inconclusive: 29.1 µM [rising, single point] |  |
| CC1=NN(C(=O)c2ccccc2-n2cccc2)C(O)(C(F)(F)F)C1 (stereo unspecified) |  | inactive: -9.77% |
| O=C(O)c1ccc(N/N=C/c2cc3ccccc3nc2Cl)cc1 |  | inactive: 15.5% |

| SMILES | Potency | activity change, negative = cytotoxicity |
| --- | --- | --- |
| CS(=O)(=O)Nc1ccc(C2=NN(C(=O)c3ccccc3)C(c3cccs3)C2)cc1 (stereo unspecified) | inconclusive: 29.1 µM [cytotoxic, single point] |  |
| NC(=S)N/N=C/c1ccc(-n2nncc2-c2ccc(Cl)cc2)cc1 | inconclusive: 23.1 µM [cytotoxic, single point] |  |
| CC(C)CNC(=O)c1cccc(NC(=O)c2ccc(Cl)c([N+](=O)[O-])c2)c1 | active: 20.6 µM |  |
| CN(CC(=O)Nc1ccccc1Cl)C(=O)C1CCN(C(=O)c2ccc(Cl)cc2)CC1 | inconclusive: 20.6 µM [cytotoxic, single point] |  |
| CCN1CCN(C(=O)C(C)Sc2nc3nc(C)cc(C)n3n2)CC1 (stereo unspecified) |  | inactive: 11.6% |
| COCCN(CCOC)c1nc(-c2ccc([N+](=O)[O-])cc2)nc2ccccc12 |  | inactive: 6.8% |
| c1ccc(OCc2nn3c(-c4ccco4)nnc3s2)cc1 | inconclusive: 23.1 µM [cytotoxic, single point] |  |
| CC(C)CN1C(=S)SC(C)(C)C1n1oc(=O)n(-c2ccc(Cl)cc2)c1=O (stereo unspecified) | inconclusive: 23.1 µM [cytotoxic, single point] |  |
| CCCNC1(C(N)=O)CCN(Cc2ccccc2)CC1 |  | inconclusive: 1.45% |
| CCOC(=O)c1ccc(NC(=O)NC(C)C2CCCO2)cc1 (stereo unspecified) |  | inconclusive: -37.9% |
| OC(COc1ccccc1Cl)CN1CCN(CC(O)COc2ccccc2Cl)CC1 (stereo unspecified) | inconclusive: 29.1 µM [cytotoxic, single point] |  |
| O=C(NCc1cccc(C(F)(F)F)c1)C1CC(c2ccccc2[N+](=O)[O-])=NO1 (stereo unspecified) | inconclusive: 20.6 µM [cytotoxic, single point] |  |
| Cc1ccccc1Cc1c(C)nc2nc(SCC(=O)NCc3ccco3)nn2c1C | inconclusive: 20.6 µM [cytotoxic, partial curve, poor fit] |  |
| NC(=O)CSc1nnc(-c2cc3ccccc3o2)n1Cc1ccccc1 | inconclusive: 16.4 µM [cytotoxic, single point] |  |
| CCOC(=O)c1ccc(NC(=O)c2ccc(=O)n(Cc3cccc(C)c3)c2)cc1 | inconclusive: 18.4 µM [cytotoxic, single point] |  |
| COCC(=O)N1CCN(c2ccc([N+](=O)[O-])cc2)CC1 | inconclusive: 25.9 µM [cytotoxic, partial curve, poor fit] |  |
| Cc1ccc(NC(=O)CSc2sc3c(O)cc(=O)[nH]c3c2C#N)c(F)c1 | inconclusive: 25.9 µM [rising, partial curve, poor fit] |  |
| CN(C)S(=O)(=O)c1ccc(C(=O)Oc2cc(=O)[nH]c3ccccc23)cc1 |  | inactive: 2.57% |
| C=CCn1c(SCC(=O)N2CCCC2)nc2scc(-c3cccs3)c2c1=O | inconclusive: 3.66 µM [cytotoxic, partial curve] |  |
| CN1OC[C@@H]2CN(C(=S)NCCc3ccccc3)[C@H](c3ccc(N4CCCCC4)cc3)C[C@@H]21 |  | inactive: -5.31% |
| CC(C)COc1ccc(CSCCNC(=S)Nc2ccccc2)cc1 | active: 25.9 µM |  |
| Cc1ccc(-n2ncc(C(=O)N3CCN(c4ccc(Cl)cc4)CC3)c2C2CCN(C(=O)OC(C)(C)C)CC2)c(C)c1 |  | inactive: -6.95% |
| Cc1cccc(-c2nsc(SCC(=O)N3CCCC3)n2)c1 | active: 16.4 µM |  |
